According to PubChem BioAssay AID624297 (National Center for Advancing Translational Sciences (NCATS), 2012):
“And” between values parts separate entries of the source, which are not always exact repeats. Equal values may be shown once. About 6,200 (1.8%) of roughly 340,000 compounds were called active. This list was built around the results that the source calls inconclusive (neither active nor inactive); the mix of calls is not that of the screen. The call rests on the fitted dose curve; in most records, active means well fitted activation curve with a large enough effect; inconclusive means small, poorly fitted or top-dose-only effect; inactive means no such curve, though single readings can be large or run the other way. Potencies of inconclusive entries are doubtful fits and often do not repeat.

Experiment: A quantitative high throughput screen for small molecules that induce DNA re-replication in SW480 colon adenocarcinoma cells. Further: nearly all actives have a fitted effect of over 55% in size. On re-replication activation: % of control where 0% means no effect.
Conditions: Hoechst DNA content imaging, 48 h; re-replication activation: at 46.1 µM (top of the series) unless noted
Outline: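 Readout is total intensity of Hoechst-stained nuclei, excited at 405 nm and collected at 500-530 nm. Compound treatment lasted 48 hr at 37 C in 5% CO2 before staining.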
Potency means the concentration at half of the fitted maximal effect.

Row | Compound | Potency | re-replication activation
1 | O=C(Oc1ccccc1C(=S)N1CCOCC1)c1ccc([N+](=O)[O-])cc1[N+](=O)[O-] | inconclusive: 10 µM [activator, single point] | –
2 | COc1ccc(OC)c(NC(=O)C2CCN(S(=O)(=O)c3c(C)noc3C)CC2)c1 | inconclusive: 0.103 µM [activator, full curve, poor fit] | –
3 | Cc1ccc(NC(=O)c2ccc(S(=O)(=O)N3CCC(C)CC3)cc2)cc1 | inactive | –
4 | Cc1cc(C(F)(F)F)c(C#N)c(SCC(=O)Nc2nc3cc(Br)ccc3s2)n1 | inconclusive: 23.1 µM [activator, single point] | –
5 | O=C(Oc1c(Cl)cc(Cl)c2cccnc12)c1ccco1 | inconclusive: 16.4 µM [activator, single point] | –
6 | O=C(Nc1nnc(C2=COCCO2)o1)c1cccc(Br)c1 | inconclusive: 29.1 µM [activator, single point] | –
7 | COCCNC(=S)N(CCc1c(C)[nH]c2ccc(F)cc12)Cc1ccc(C)cc1 | inconclusive: 29.1 µM [activator, single point] | –
8 | Cc1ccc(C2CC2C(=O)NNC(=S)Nc2cccc(C)c2)cc1 (centres undefined) | inconclusive: 18.4 µM [activator, single point] | –
9 | COc1cc(CCC(=O)Nc2ccc(C)c(S(=O)(=O)N(C)C)c2)cc(OC)c1OC | inactive | –
10 | C/C(CC1CC2=C(CC1(C)C)C(C)(C)CCC2)=N\NC(N)=S (centres undefined) | inconclusive: 32.6 µM [activator, single point] | –
11 | Fc1ccc(NC(=S)Nc2nccs2)cc1 | inconclusive: 18.4 µM [activator, single point] | –
12 | Cn1cnc([N+](=O)[O-])c1Oc1cccc(O)c1 | inactive | –
13 | COc1ccc(NC(=O)c2ccc(-c3ccc(-c4noc(C)n4)cc3C)cc2)cc1N1CCN(C)CC1 | inconclusive: 0.146 µM [activator, partial curve, poor fit] | –
14 | O=c1c(Br)c(Br)cnn1-c1ccccc1 | inactive | –
15 | COc1ccccc1CCNC(=O)C(=O)NCC1CCCN1S(=O)(=O)c1ccccc1 (centres undefined) | inconclusive: 16.4 µM [activator, single point] | –
16 | O=C(NC(=S)N1CCN(c2ccc(O)cc2)CC1)c1cccs1 | inconclusive: 23.1 µM [activator, single point] | –
17 | CN1CCN(c2ccccc2NC(=O)c2cc(Br)ccc2Cl)CC1 | inactive | –
18 | CC(C)(C)c1ccc(C(=O)Nc2ccc(Oc3cccnc3)nc2)cc1 | inactive | –
19 | Cc1[nH]c(=S)c(C#N)c(C)c1Cc1ccccc1 | inactive | –
20 | CCCc1[nH]c2ccc(C#N)cc2c1CCC | inconclusive: 0.326 µM [activator, full curve, poor fit] | –
21 | Cc1ccc(CNCCCSc2nc(C)cc(C)n2)cc1 | inconclusive: 29.1 µM [activator, single point] | –
22 | N#Cc1ccc(-c2ccc(OCC(=O)Nc3cccnc3)cc2)cc1 | inactive | –
23 | O=S(=O)(/N=C(/c1ccccc1Cl)N1CCOCC1)c1ccccc1 | inconclusive: 6.51 µM [activator, single point] | –

Row | Compound | Potency | re-replication activation
24 | COc1ccc(-c2noc(CCC(=O)NC3CCCCC3)n2)cc1 | inconclusive: 18.4 µM [activator, single point] | –
25 | CN(CC(=O)Nc1ccc(Cl)c(Cl)c1)C(=O)CNC(=O)C1CCCCC1 | inconclusive: 11.6 µM [activator, partial curve, poor fit] | –
26 | O=c1[nH]c2ccccc2nc1/C=C/c1ccc(F)cc1 | inconclusive: 11.6 µM [activator, partial curve, poor fit] | –
27 | CN1CCN(c2ccccc2NC(=O)c2ccc(N3CCCC3)c([N+](=O)[O-])c2)CC1 | inactive | –
28 | COc1cc(/C=N/N=C2/SCC(=O)N2c2ccc(O)cc2)ccc1O | inconclusive: 25.9 µM [activator, single point] | –
29 | CCOc1ccc(/C(O)=C2/C(=O)C(=O)N(c3ccccn3)C2c2ccc(C)cc2)c(C)c1 (centres undefined) | inconclusive: 23.1 µM [activator, single point] | –
30 | O=C(CSc1nncs1)N1CCN(S(=O)(=O)c2ccccc2)CC1 | inactive | –
31 | CCc1cccc(CC)c1NC(=O)COC(=O)c1cccc(S(=O)(=O)N2CCc3ccccc3C2)c1 | inconclusive: 4.61 µM [activator, full curve, poor fit] | –
32 | O=c1c2c3c(sc2n2cnnc2n1Cc1ccccc1)CN(Cc1ccccc1)CC3 | inactive | –
33 | C/C(CCN1CCc2nc(-c3ccccc3)c(-c3ccccc3)cc2C1)=N\O[C@@H](C)c1cn([C@H](CO)Cc2ccccc2)nn1 | inconclusive: 29.1 µM [activator, single point] | –
34 | CCCCCCCCCCCCCC(=O)O | inconclusive: 2.31 µM [activator, partial curve, poor fit] | –
35 | CCc1cccc(NC(=O)CCCSc2nc3ccccc3[nH]2)c1 | inactive | –
36 | Cc1ccc(S(=O)(=O)N2CCOCC2)cc1C(=O)OCC(=O)NCCc1ccc(F)cc1 | inconclusive: 6.51 µM [activator, single point] | –
37 | COc1ccc(NC(=O)c2ccccc2NC(=O)COc2ccccc2)cc1 | inactive | –
38 | CCOc1ccccc1N1CCN(C(=O)c2c(Cl)cnn2C)CC1 | inactive | –
39 | CC(NC(=O)c1cccs1)C1CCCO1 (centres undefined) | inconclusive: 2.59 µM [activator, partial curve] | –
40 | COC(=O)Nc1nc(-c2ccccc2)c(C(=O)c2ccc(Cl)cc2)s1 | active: 1.3 µM | –
41 | Cc1ccc(-n2c3c(cc(C(=O)NC4CCSC4=O)c2=O)C(=O)CC(C)(C)C3)cc1 (centres undefined) | inactive | –
42 | CN1CCN(S(=O)(=O)c2ccc3c(c2)oc(=O)n3C)CC1 | inactive | –
43 | COc1cc(C2C(C#N)=C(N)N(Nc3ccccc3)C3=C2C(=O)CC(C)(C)C3)ccc1OCc1cccc(F)c1 (centres undefined) | inconclusive: 29.1 µM [activator, single point] | –
44 | COc1ccc2oc(=O)c(-c3csc(Nc4cccc(O)c4)n3)cc2c1 | inconclusive: 20.6 µM [activator, single point] | –
45 | O=C(c1ccccc1)N1CCN(C(=O)c2ccncc2)CC1 | inactive | –
46 | CC(=O)OCc1c(-c2ccccc2)c2cc([N+](=O)[O-])ccc2n1C | inconclusive: 20.6 µM [activator, partial curve, poor fit] | –

Row | Compound | Potency | re-replication activation
47 | Cc1ccc(-c2[nH]nc(N)c2N=Nc2ccccc2C)cc1 | inconclusive: 23.1 µM [activator, single point] | –
48 | O=[N+]([O-])c1ccc(NCc2ccccc2)nc1 | inconclusive: 1.64 µM [activator, full curve, poor fit] | –
49 | Cc1cccc(C)c1OCc1cc(C(=O)N2CCC(c3ccccc3)CC2)no1 | inconclusive: 29.1 µM [activator, single point] | –
50 | COC(=O)N/N=C/c1cn(Cc2c(Cl)cccc2Cl)c2ccccc12 | inactive | –
51 | CC(C)(C)C1CCC(=NNC(=O)C(=O)NC2CCCCC2)CC1 (centres undefined) | inconclusive: 7.31 µM [activator, partial curve, poor fit] | –
52 | CCCCN1CNC(=S)N(c2cc(C)ccc2C)C1 | inconclusive: 29.1 µM [activator, single point] | –
53 | COc1ccc(-c2ccc(CCC(=O)O)o2)cc1 | inconclusive: 16.4 µM [activator, single point] | –
54 | CCCCCCNC(=O)C(C#N)c1nc2ccccc2nc1N1CCCC1 (centres undefined) | inconclusive: 20.6 µM [activator, partial curve, poor fit] | –
55 | O=C(Nc1cc(Cl)ccc1O)C1CC(c2c(F)cccc2Cl)=NO1 (centres undefined) | inconclusive: 13 µM [activator, single point] | –
56 | Cc1ccc(CC2SC(N)=NC2=O)cc1 (centres undefined) | inconclusive: 0.0046 µM [activator, full curve, poor fit] | –
57 | O=C(Cc1ccccc1)Nc1cccc(C(=O)N/N=C/c2ccco2)c1 | inconclusive: 0.103 µM [activator, full curve, poor fit] | –
58 | CCN(CC)S(=O)(=O)c1cccc(C(=O)NCC(c2ccccc2)N(C)C)c1 (centres undefined) | inactive | –
59 | COc1ccc(C(=O)Nc2nnc(SCC(=O)NC3CCCC3)s2)c(OC)c1 | inconclusive: 3.66 µM [activator, single point] | –
60 | CCCCn1c(=O)nc2n(-c3ccccc3C)c3ccccc3cc-2c1=O | inconclusive: 13 µM [activator, partial curve, poor fit] | –
61 | Nc1c(C(=O)NCc2ccc(F)cc2)c2nc3ccccc3nc2n1CCCN1CCOCC1 | active: 3.66 µM | –
62 | O=C(NCc1ccco1)c1cc(-c2ccccc2)nn1CC1CC(c2cccnc2)=NO1 (centres undefined) | inconclusive: 29.1 µM [activator, single point] | –
63 | Cc1ccc(S(=O)(=O)Nc2nc3ccccc3s2)cc1 | inactive | –
64 | Cc1ccc(S(=O)(=O)N2[C@@H](c3cccc4ccccc34)C(C(=O)O)=C[C@H]2C(C)(C)C)cc1 | – | inactive: -25.3% [at 9.22 µM]
65 | O=C1CCc2ccc(OCCCCN3CCN(c4cccc(Cl)c4Cl)CC3)cc2N1 | inconclusive: 33.5 µM [activator, single point] and inconclusive: 7.08 µM [activator, single point] | –
66 | CCOC(=O)CSc1nc(N)cc(=O)[nH]1 | inactive | –
67 | COc1cc(/C=C2\COC/C(=C\c3ccc(O)c(OC)c3)C2=O)ccc1O | active: 7.31 µM | –
68 | O=C(O)c1cccc(NC(=O)c2cn(-c3ccccc3)nc2-c2ccc(F)cc2)c1 | – | inconclusive: 74.5% [activator]
69 | COc1ccc(/C=N\NC(=O)c2ccccc2)cc1COc1ccc(F)cc1 | inconclusive: 29.1 µM [activator, single point] | –

Another view of some results above.

| Row | Compound | Potency | re-replication activation |
| --- | --- | --- | --- |
| 56 | Cc1ccc(CC2SC(N)=NC2=O)cc1 (centres undefined) | inconclusive: 0.0046 µM [activator, full curve, poor fit] | – |
| 57 | O=C(Cc1ccccc1)Nc1cccc(C(=O)N/N=C/c2ccco2)c1 | inconclusive: 0.103 µM [activator, full curve, poor fit] | – |
| 58 | CCN(CC)S(=O)(=O)c1cccc(C(=O)NCC(c2ccccc2)N(C)C)c1 (centres undefined) | inactive | – |
| 59 | COc1ccc(C(=O)Nc2nnc(SCC(=O)NC3CCCC3)s2)c(OC)c1 | inconclusive: 3.66 µM [activator, single point] | – |
| 60 | CCCCn1c(=O)nc2n(-c3ccccc3C)c3ccccc3cc-2c1=O | inconclusive: 13 µM [activator, partial curve, poor fit] | – |
